We go through 2 sequences from publication PMC6375388.

Protein sequences, listed by entry. Tags and fused reporters are not part of them. Residues count along the entry.
UniProt P01127, 82-190: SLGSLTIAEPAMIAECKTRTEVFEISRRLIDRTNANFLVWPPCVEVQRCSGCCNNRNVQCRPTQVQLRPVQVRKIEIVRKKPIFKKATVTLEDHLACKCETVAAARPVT

Construct, isoform or probe ends are uncertain for at least one entry. For some assays here: At least one verdict rests on a figure or table, not on a statement of the authors.

Series [1] deals with PDGF-BB (Homo sapiens) (UniProt P01127). As to the kind of experiment: growth factor retention/release from functionalized coverslip (ELISA?). The settings on record: minimal release versus RGD-functionalized coverslips; 5' thiol C6 and Sp18; 3' Sp18 and azide coupled to DBCO-GRGDSPC peptide; immobilized on maleimide glass; Retention of PDGF-BB on TrAP-coated glass coverslips after washing; Kd values cited; recombinant protein; folded or branched …. For orientation: In an ELISA, binding on a coated surface is turned into a signal by an enzyme label.

Series [2] shares this target. As to the kind of experiment: binding assay. The settings on record: Retention of PDGF-BB on TrAP-coated glass coverslips after washing; Kd values cited; recombinant protein; folded or branched DNA.

On to “CAGGCTACGGCACGTAGAGCATCACCATGATCCTG [PDGF-BB RGD-TrAP (Apt_PDGFBB_1)]”, for which the binding result in the series with PDGF-BB (Homo sapiens) [1] is “binds”.

Broadly, the Kd is the free concentration of one partner at which half of the binding sites on the other are occupied at equilibrium, for simple one-to-one binding. Take “CAGGCTACGGCACGTAGAGCATCACCATGATCCTG [anti-PDGF-BB aptamer]”: in the series with PDGF-BB (Homo sapiens) [2], the Kd was 0.1 nM.
